Several values for one entry are separate records, joined by “and”; a condition that tells them apart may be missing. Identical values can stand only once. Some of the results follow. Single wells; the ratio to wells without odorant was worked out here, and repeats agree poorly.
Assays:
Assay in all cases: odorant receptor activation (CRE luciferase / Renilla) (fold of no-odor wells); higher = more activation
Settings in all cases: 100 µM
OR10C1 clone 1065 = system: OR10C1 clone 1065
OR10G3 S73G clone 1272 = system: OR10G3 S73G clone 1272
[1] = system: OR10G4 A9V/M134V/V195E/R235G/K295Q clone 1119
OR10G6 clone 1108 = system: OR10G6 clone 1108
OR10G7 clone 1589 = system: OR10G7 clone 1589
OR10G8 clone 1396 = system: OR10G8 clone 1396
[2] = system: OR10G9 A90T/M134V clone 1192
OR10H1 clone 1291 = system: OR10H1 clone 1291
OR10H2 L40Q clone 1461 = system: OR10H2 L40Q clone 1461
OR10H3 clone 1525 = system: OR10H3 clone 1525
OR10H5 A224D clone 1294 = system: OR10H5 A224D clone 1294
OR10J1 clone 1711 = system: OR10J1 clone 1711
OR10J3 clone 1458 = system: OR10J3 clone 1458
OR10J5 R233W clone 1410 = system: OR10J5 R233W clone 1410
OR10J5 clone 1037 = system: OR10J5 clone 1037
OR10K1 clone 1024 = system: OR10K1 clone 1024
OR10K2 clone 1040 = system: OR10K2 clone 1040
OR10P1 clone 1254 = system: OR10P1 clone 1254
OR10Q1 clone 1202 = system: OR10Q1 clone 1202
[3] = system: OR10R2 A191T/E216G/L239F clone 1304

Structure (SMILES) | odorant receptor activation (OR10C1 clone 1065) | odorant receptor activation (OR10G3 S73G clone 1272) | odorant receptor activation [1] | odorant receptor activation (OR10G6 clone 1108) | odorant receptor activation (OR10G7 clone 1589) | odorant receptor activation (OR10G8 clone 1396) | odorant receptor activation [2] | odorant receptor activation (OR10H1 clone 1291) | odorant receptor activation (OR10H2 L40Q clone 1461) | odorant receptor activation (OR10H3 clone 1525) | odorant receptor activation (OR10H5 A224D clone 1294) | odorant receptor activation (OR10J1 clone 1711) | odorant receptor activation (OR10J3 clone 1458) | odorant receptor activation (OR10J5 R233W clone 1410) | odorant receptor activation (OR10J5 clone 1037) | odorant receptor activation (OR10K1 clone 1024) | odorant receptor activation (OR10K2 clone 1040) | odorant receptor activation (OR10P1 clone 1254) | odorant receptor activation (OR10Q1 clone 1202) | odorant receptor activation [3]
COC(=O)c1ccccc1O [methyl salicylate] | 0.942 | 1.25 | 1.1 | 0.986 | 1.38 | 1.05 | 1.27 | 0.782 | 0.706 | 0.94 | 0.78 | 1.14 | 0.811 | 1.18 | 0.988 | 1.17 | 0.846 | 0.906 | 1.02 | 0.922
CC1=CCC(C(C)(C)O)CC1 (stereo not given) [terpineol] | 0.823 | 0.84 | 1.05 | 1.04 | 1.21 | 1.21 | 1.04 | 0.981 | 0.627 | 0.873 | 0.843 | 1.02 | 0.721 | 1.12 | 1.06 | 0.963 | 1.07 | 0.981 | 1.01 | 0.839
c1ccc(Oc2ccccc2)cc1 [diphenyl ether] | 1.08 | 1.02 | 0.763 | 1.08 | 0.859 | 1.04 | 0.984 | 1.16 | 1.22 | 1.11 | 0.951 | 0.614 | 0.899 | 0.946 | 0.892 | 1.04 | 1.1 | 0.997 | 0.802 | 1.01
O=C1CCCCCCCCCCCC(=O)OCCO1 [ethylene brassylate] | 1.85 | 1.5 | 2.06 | 1.92 | 1.01 | 1.92 | 1.95 | 1.27 | 1.79 | 1.1 | 1.51 | 1.24 | 1.7 | 1.85 | 1.54 | 1.54 | 1.57 | 1.88 | 1.48 | 1.44
CC(C)CC(=O)O [isovaleric acid] | 0.95 | 0.97 | 1.22 | 1.4 | 11.3 | 0.885 | 1.33 | 0.859 | 0.76 | 1.06 | 0.84 | 0.941 | 1.1 | 0.934 | 1.29 | 1.4 | 1.05 | 0.82 | 1.45 | 0.726
CCCCCCOC(=O)CCC [hexyl butyrate] | 1.12 | 1.25 and 0.843 | 0.863 | 1.02 | 0.753 | 0.684 | 0.713 | 1.11 and 0.901 | 0.759 and 1.01 | 0.988 and 0.874 | 1.26 and 1.12 | 0.756 | 0.935 | 1.03 | 1.56 | 1.18 | 0.518 | 0.927 and 1.67 | 1.11 | 1.04 and 0.529
c1cnccn1 [pyrazine] | 1.04 | 0.801 | 0.932 | 0.985 | 0.87 | 1.09 | 0.878 | 1.01 | 0.883 | 0.91 | 0.918 | 0.81 | 0.977 | 1.1 | 0.843 | 1.05 | 1.23 | 0.778 | 0.698 | 0.876

Source: the odorant receptor screen of Mainland et al. (2015)
